According to US6506889:
Results are given in words; binding and its absence hold for the method and conditions named. Some binding calls cover weakened binding; strength is not graded here. Where a sequence is shown, tags or fusion partners need not be part of it.

By UniProt entry, the sequences of proteins in these tests, tags left out. Where a name states a change or a piece, a line headed by the entry shows the natural chain unless it says otherwise.
UniProt P04386: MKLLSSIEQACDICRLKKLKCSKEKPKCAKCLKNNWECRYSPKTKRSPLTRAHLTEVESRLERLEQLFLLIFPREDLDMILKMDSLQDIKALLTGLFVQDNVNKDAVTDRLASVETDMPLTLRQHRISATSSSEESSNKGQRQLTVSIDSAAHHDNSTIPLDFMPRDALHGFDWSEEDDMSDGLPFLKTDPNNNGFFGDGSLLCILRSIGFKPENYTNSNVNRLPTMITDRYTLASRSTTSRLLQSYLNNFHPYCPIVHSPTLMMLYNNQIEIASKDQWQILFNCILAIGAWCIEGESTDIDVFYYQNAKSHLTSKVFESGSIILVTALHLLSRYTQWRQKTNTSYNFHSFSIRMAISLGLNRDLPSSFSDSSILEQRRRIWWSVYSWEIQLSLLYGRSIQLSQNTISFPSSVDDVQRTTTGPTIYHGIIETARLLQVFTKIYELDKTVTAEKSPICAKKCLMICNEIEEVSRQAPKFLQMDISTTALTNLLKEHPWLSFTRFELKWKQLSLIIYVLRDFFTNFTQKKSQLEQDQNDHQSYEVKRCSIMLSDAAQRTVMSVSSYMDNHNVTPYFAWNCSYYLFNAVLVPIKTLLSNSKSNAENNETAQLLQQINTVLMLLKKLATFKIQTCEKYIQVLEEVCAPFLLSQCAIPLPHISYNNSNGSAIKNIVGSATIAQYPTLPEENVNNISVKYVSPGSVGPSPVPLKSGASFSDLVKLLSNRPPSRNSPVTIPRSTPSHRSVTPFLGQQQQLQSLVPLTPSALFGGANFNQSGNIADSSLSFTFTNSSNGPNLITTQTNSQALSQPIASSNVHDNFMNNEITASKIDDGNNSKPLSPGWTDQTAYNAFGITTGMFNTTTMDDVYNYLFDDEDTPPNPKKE

Columns and labels:
[1] = molecular target: T1, N-Ras fused to the GAL4 DNA binding domain (mammalian) (UniProt P04386+P01111); test: yeast two-hybrid, growth on His-selective media
[2] = molecular target: T1, N-Ras fused to the GAL4 DNA binding domain (mammalian); test: yeast two-hybrid (GAL4 AD-SUR-8 with GAL4 DBD-Ras)
[3] = molecular target: wild type LET-60 Ras fused to the GAL4 DNA binding domain (C. elegans) (UniProt P04386+P22981); test: yeast two-hybrid (GAL4 AD-SUR-8 with GAL4 DBD-Ras)
[4] = molecular target: T1, N-Ras fused to the GAL4 DNA binding domain (mammalian); test: yeast two-hybrid

Measured: binding

B1: Human SUR-8 fused to the GAL4 activation domain (protein, not shown: large carriers)
chain: MSSSLGKEKDSKEKDPKVPSAKEREKEAKASGGFGKESKEKEPKTKGKDAKDGKKDSSAAQPGVAFSVDNTIKRPNPAPGTRKKSSNAEVIKELNKCREENSMRLDLSKRSIHILPSSIKELTQLTELYLYSNKLQSLPAEVGCLVNLMTLALSENSLTSLPDSLDNLKKLRMLDLRHNKLREIPSVVYRLDSLTTLYLRFNRITTVEKDIKNLSKLSMLSIRENKIKQLPAEIGELCNLITLDVAHNQLEHLPKEIGNCTQITNLDLQHNELLDLPDTIGNLSSLSRLGLRYNRLSAIPRSLAKCSALEELNLENNNISTLPESLLSSLVKLNSLTLARNCFQLYPVGGPSQFSTIYSLNMEHNRINKIPFGIFSRAKVLSKLNMKDNQLTSLPLDFGTWTSMVELNLATNQLTKIPEDVSGLVSLEVLILSNNLLKKLPHGLGNLRKLRELDLEENKLESLPNEIAYLKDLQKLVLTNNQLTTLPRGIGHLTNLTHLGLGENLLTHLPEEIGTLENLEELYLNDNPNLHSLPFELALCSKLSIMSIENCPLSHLPPQIVAGGPSFIIQFLKMQGPYRAMV
binds: all assays above
